# According to article PMC3721995:
# Target: recombinant HIV-1 gp120BaL protein (HIV-1 (isolate BaL))
# Test: ELISA; competition ELISA; biotinylated P19 (40 ug/ml) mixed with increasing concentrations of non-biotinylated P19 and added to a gp120-coated plate (8 ug/ml), 37°C, 60 min; P1 as control at 640 ug/ml; both purified
binder,measurement,value
"GWLSHNCGHGEDAGV (biotin on the N-terminus) [SRCR1 peptide P19, biotinylated]",binding,binds

# Results are given in words; binding and its absence hold for the method and conditions named. Binding can be weak; no strength is given.
